The other results are listed elsewhere or left out. Most entries show no effect beyond the scatter of the controls.

Chains of the proteins cited; added tags and fusions are not shown. Lines headed by an entry give the natural chain unless they say otherwise; changes in a name come on top.
UniProt Q86VX2, whole entry: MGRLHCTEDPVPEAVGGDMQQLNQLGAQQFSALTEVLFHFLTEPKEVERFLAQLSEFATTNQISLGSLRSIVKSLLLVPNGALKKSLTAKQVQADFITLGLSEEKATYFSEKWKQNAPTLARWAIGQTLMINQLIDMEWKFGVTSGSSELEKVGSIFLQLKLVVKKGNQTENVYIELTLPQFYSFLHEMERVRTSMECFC
UniProt Q8IVB5: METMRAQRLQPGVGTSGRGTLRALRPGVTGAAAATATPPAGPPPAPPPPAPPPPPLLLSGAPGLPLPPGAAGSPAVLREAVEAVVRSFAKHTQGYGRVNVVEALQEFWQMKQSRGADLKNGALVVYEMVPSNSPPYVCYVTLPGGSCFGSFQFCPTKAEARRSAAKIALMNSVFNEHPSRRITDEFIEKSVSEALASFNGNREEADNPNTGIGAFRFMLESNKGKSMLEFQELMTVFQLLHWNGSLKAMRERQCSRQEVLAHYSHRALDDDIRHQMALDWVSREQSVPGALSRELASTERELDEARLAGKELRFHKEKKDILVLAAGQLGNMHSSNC
UniProt Q8IXI1, whole entry, looked up: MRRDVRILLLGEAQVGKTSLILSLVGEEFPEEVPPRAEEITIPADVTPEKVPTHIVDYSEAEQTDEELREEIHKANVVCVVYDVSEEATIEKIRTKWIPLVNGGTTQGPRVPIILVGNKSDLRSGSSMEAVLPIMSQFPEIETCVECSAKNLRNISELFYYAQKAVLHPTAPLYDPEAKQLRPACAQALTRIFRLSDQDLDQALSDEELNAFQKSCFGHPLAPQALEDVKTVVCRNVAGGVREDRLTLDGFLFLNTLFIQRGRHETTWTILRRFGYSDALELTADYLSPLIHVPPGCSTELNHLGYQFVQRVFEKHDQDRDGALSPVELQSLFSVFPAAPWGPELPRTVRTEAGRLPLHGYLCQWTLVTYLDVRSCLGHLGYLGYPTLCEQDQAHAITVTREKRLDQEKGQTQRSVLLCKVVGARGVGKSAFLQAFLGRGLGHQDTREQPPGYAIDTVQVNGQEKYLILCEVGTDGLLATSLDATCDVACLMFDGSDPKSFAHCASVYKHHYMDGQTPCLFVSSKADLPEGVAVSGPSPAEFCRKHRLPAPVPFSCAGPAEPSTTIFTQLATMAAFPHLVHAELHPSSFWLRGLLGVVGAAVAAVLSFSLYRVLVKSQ
UniProt Q86X55: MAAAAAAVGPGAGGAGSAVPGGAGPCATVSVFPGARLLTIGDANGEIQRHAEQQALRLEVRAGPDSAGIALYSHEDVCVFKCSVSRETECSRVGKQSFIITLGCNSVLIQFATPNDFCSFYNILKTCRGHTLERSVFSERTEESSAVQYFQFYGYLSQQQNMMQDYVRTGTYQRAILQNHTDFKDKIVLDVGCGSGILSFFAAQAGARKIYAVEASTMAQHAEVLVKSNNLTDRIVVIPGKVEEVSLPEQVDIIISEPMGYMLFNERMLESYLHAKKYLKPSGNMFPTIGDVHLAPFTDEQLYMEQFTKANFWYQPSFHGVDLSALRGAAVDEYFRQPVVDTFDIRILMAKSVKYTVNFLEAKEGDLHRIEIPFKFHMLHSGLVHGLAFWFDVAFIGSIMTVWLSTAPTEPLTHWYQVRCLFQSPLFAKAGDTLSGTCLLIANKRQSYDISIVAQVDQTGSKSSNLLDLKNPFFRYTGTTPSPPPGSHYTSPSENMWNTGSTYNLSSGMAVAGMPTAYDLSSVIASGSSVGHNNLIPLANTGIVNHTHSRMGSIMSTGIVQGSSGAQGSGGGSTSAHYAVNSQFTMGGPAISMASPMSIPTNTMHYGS
UniProt Q8IUG5: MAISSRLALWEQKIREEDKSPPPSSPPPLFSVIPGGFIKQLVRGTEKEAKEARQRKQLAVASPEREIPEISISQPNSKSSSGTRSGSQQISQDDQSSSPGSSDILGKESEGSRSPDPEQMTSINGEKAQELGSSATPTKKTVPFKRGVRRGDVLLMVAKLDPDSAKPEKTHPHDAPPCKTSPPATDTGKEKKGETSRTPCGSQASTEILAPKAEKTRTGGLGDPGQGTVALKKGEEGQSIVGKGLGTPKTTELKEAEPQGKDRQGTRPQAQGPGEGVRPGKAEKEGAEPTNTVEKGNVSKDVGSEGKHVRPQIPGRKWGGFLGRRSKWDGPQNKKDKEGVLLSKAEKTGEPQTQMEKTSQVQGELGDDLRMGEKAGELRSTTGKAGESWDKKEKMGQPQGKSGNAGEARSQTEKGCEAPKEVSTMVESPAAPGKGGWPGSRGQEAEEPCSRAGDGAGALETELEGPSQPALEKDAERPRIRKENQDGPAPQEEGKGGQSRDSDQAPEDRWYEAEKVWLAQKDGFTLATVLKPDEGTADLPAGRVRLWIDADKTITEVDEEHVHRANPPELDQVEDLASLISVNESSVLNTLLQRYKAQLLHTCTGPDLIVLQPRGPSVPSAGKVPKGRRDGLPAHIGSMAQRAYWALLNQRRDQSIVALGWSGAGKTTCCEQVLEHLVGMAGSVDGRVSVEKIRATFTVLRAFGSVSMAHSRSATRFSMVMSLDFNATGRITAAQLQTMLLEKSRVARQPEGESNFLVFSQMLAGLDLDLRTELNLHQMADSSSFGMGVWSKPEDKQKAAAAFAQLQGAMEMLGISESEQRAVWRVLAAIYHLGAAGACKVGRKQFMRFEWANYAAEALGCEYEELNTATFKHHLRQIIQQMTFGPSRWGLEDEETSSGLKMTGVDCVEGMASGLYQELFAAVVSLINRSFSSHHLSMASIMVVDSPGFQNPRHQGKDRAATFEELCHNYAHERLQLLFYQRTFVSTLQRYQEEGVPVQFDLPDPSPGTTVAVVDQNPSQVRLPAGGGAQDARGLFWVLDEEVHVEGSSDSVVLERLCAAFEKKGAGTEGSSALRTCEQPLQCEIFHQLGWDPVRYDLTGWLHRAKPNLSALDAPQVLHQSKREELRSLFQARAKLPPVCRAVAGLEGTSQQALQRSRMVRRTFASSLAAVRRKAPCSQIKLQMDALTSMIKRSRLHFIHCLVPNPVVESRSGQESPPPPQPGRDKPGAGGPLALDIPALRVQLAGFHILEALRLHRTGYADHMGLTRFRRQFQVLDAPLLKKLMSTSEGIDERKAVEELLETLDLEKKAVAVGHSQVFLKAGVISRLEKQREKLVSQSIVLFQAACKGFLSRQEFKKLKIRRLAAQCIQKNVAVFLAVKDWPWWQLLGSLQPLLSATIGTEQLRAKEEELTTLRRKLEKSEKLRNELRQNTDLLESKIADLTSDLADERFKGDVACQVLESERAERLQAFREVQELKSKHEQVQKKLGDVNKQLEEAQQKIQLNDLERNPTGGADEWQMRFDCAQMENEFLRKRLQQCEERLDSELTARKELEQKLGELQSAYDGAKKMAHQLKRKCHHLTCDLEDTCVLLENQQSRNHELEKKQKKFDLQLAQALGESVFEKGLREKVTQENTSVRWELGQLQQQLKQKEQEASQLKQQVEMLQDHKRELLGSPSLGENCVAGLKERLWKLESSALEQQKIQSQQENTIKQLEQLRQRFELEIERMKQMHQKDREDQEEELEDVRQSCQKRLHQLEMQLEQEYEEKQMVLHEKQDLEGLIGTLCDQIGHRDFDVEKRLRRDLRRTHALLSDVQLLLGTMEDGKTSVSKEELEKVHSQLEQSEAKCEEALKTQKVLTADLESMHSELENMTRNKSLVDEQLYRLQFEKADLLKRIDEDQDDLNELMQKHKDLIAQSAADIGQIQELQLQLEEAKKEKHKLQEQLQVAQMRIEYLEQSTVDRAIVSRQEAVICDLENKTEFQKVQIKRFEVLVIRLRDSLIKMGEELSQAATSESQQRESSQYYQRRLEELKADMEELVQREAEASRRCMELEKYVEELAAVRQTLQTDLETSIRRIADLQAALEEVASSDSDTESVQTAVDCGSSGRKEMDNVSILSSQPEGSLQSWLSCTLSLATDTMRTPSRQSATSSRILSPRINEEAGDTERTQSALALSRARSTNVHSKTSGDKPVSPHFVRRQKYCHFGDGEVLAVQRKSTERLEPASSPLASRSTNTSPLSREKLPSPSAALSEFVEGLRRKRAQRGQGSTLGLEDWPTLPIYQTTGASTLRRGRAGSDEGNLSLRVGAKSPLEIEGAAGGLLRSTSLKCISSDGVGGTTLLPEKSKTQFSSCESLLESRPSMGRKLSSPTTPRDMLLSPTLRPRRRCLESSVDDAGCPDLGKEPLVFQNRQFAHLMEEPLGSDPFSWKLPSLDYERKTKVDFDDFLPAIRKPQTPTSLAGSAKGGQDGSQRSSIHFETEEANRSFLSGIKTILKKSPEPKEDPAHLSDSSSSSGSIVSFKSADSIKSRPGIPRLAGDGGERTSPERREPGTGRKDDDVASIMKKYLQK
UniProt Q8IVN3: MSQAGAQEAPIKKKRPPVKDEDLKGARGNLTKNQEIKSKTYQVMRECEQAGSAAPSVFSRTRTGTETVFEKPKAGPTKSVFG
UniProt Q86YS6: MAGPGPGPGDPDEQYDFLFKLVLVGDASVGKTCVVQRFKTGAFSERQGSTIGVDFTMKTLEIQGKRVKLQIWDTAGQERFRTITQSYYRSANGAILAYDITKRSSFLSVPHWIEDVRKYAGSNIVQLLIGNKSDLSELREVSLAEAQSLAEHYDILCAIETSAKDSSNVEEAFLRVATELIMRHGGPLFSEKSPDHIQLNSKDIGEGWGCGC
UniProt Q8IXZ2: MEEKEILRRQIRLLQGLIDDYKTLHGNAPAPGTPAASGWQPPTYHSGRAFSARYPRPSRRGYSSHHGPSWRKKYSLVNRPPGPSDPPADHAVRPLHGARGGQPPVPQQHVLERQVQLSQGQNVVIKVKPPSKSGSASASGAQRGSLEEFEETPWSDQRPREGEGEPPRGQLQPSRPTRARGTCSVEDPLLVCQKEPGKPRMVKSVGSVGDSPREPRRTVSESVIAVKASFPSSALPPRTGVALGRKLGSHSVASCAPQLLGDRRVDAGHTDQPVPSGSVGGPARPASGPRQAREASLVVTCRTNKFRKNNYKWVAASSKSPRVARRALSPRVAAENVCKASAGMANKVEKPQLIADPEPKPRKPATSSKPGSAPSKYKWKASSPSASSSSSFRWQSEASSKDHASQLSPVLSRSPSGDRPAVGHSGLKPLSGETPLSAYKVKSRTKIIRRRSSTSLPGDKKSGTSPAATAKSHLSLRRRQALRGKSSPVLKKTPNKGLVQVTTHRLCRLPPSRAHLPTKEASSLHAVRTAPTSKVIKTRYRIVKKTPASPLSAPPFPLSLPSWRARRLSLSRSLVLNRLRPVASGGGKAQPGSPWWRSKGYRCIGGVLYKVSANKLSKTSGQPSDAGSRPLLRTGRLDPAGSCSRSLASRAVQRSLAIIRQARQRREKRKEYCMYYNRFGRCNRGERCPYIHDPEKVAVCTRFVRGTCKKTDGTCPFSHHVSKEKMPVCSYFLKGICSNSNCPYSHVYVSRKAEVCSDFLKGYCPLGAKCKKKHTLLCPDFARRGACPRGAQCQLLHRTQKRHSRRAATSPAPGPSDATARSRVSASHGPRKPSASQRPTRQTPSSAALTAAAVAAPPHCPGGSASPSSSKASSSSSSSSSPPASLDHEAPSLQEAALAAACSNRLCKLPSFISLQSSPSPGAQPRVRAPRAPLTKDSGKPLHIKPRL
UniProt Q86W92: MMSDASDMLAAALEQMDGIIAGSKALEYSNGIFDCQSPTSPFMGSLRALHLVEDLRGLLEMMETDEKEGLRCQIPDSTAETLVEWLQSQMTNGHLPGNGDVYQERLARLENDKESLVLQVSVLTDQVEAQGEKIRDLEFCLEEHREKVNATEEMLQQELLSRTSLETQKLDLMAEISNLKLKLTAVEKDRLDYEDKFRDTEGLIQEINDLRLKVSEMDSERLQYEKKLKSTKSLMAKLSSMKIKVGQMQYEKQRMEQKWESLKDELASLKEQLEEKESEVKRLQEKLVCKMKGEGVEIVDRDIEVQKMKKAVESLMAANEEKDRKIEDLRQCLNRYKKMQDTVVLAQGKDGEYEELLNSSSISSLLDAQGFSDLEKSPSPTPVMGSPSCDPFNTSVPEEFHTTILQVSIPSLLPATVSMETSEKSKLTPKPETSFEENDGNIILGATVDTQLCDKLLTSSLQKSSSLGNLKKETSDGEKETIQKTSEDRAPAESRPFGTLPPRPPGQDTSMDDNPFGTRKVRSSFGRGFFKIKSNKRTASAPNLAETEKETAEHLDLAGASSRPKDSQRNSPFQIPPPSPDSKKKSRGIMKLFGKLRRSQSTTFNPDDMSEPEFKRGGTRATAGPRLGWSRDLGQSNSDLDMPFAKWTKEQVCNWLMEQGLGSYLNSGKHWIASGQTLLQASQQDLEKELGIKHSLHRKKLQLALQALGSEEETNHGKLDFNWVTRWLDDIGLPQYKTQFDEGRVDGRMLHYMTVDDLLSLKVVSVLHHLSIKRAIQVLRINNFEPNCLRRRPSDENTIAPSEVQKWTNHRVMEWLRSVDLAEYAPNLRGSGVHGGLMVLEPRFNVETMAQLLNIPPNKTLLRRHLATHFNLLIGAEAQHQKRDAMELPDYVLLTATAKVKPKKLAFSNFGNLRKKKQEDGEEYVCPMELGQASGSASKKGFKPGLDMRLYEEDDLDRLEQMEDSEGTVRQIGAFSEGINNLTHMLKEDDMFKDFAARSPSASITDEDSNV

Compound in the assay: Cc1nc(Nc2ncc(C(=O)Nc3c(C)cccc3Cl)s2)cc(N2CCN(CCO)CC2)n1 [dasatinib]
The assay is described as follows: log2 fold change of tryptic peptide abundance, ligand vs vehicle (limited proteolysis) (log2 ratio); higher = more trypsin-susceptible (destabilized). The note with it: ligand concentration: 5 uM; sample: K562 cleared lysate.
As to “TTC5 (peptide sequence: ISQQALSAYAQAEKVDRK, peptide start residue: 202) (UniProt Q8N0Z6)”, the log2 fold change was 0.248.
Take “LSR (peptide sequence: AMSEVTSLHEDDWR, peptide start residue: 430) (UniProt Q86X29)”: the log2 fold change turned out to be 0.122.
With “COMMD7 (peptide sequence: VRTSMECFC, peptide start residue: 192) (UniProt Q86VX2)”, the log2 fold change is -0.28.
On to “UniProt Q86YB8 (peptide sequence: LQTQGLGTALK, peptide start residue: 403)”, for which the log2 fold change is -0.00297.
Turning to “CUL9 (peptide sequence: LQAYPEELIR, peptide start residue: 18) (UniProt Q8IWT3)”, the log2 fold change is -0.435.
For “LIX1L (peptide sequence: RITDEFIEK, peptide start residue: 181) (UniProt Q8IVB5)”, the log2 fold change stood at 0.265.
The result for “UniProt Q8IWF6 (peptide sequence: SPNFDGWFK, peptide start residue: 511)” reads 0.15.
On to “HOOK3 (peptide sequence: VSKLEGQVESYKK, peptide start residue: 313) (UniProt Q86VS8)”, for which the log2 fold change worked out at 0.381.
Consider “ANKRD13A (peptide sequence: ELEEWELR, peptide start residue: 564) (UniProt Q8IZ07)”, for which the log2 fold change worked out at 0.0751.
Regarding “UBR2 (peptide sequence: RGNPLHLCKER, peptide start residue: 1710) (UniProt Q8IWV8)”, the log2 fold change was found to be 0.601.
Turning to “ARID3B (peptide sequence: LVQQAFQR, peptide start residue: 448) (UniProt Q8IVW6)”, the log2 fold change was -0.121.
Regarding “RHOT2 (peptide sequence: SCFGHPLAPQALEDVK, peptide start residue: 215) (UniProt Q8IXI1)”, the log2 fold change is 0.19.
With “CARM1 (peptide sequence: SSNLLDLK, peptide start residue: 463) (UniProt Q86X55)” the figure was -0.245.
With “UniProt Q86WG3 (peptide sequence: SLIIVHPSWFIR, peptide start residue: 243)”, the log2 fold change was -0.312.
The result for “FTSJ3 (peptide sequence: KAEAVVNTVDISEREK, peptide start residue: 763) (UniProt Q8IY81)” reads 0.53; that for “UniProt Q8IVS2 (peptide sequence: KPLVSVYSNVHAHRYR, peptide start residue: 292)”, -0.244.
On to “UniProt Q8IUZ5 (peptide sequence: YLHDNIVDYAQR, peptide start residue: 84)”, for which the log2 fold change is -0.484.
As to “MIB1 (peptide sequence: LQQQLQDIK, peptide start residue: 950) (UniProt Q86YT6)”, the log2 fold change was -0.427.
As for “UniProt Q86X10 (peptide sequence: HRPFPEEVDKIPFVK, peptide start residue: 1025)”, the log2 fold change is -0.264.
Regarding “UniProt Q8IYU8 (peptide sequence: NVEHGIIYIGKPSLRK, peptide start residue: 72)”, the log2 fold change was -0.256.
For the target “ZFPM1 (peptide sequence: DCGIWYR, peptide start residue: 245) (UniProt Q8IX07)”, the log2 fold change was 0.526.
Take “MYO18B (peptide sequence: DMLLSPTLRPR, peptide start residue: 2373) (UniProt Q8IUG5)”: the log2 fold change was -0.583.
As to “UniProt Q8IVN3 (peptide sequence: AGPTKSVFG, peptide start residue: 74)”, the log2 fold change was determined as 0.0776.
For “UniProt Q8IZL9 (peptide sequence: IADFGLAR, peptide start residue: 383)”, the log2 fold change is 0.00976.
On to “UniProt Q8N142 (peptide sequence: VTVVLGAQWGDEGKGK, peptide start residue: 30)”, for which the log2 fold change worked out at 0.25.
As to “RAB43 (peptide sequence: LVLVGDASVGK, peptide start residue: 21) (UniProt Q86YS6)”, the log2 fold change is -0.171.
For “WDFY3 (peptide sequence: ATAAWCTDSGSDDSRR, peptide start residue: 3318) (UniProt Q8IZQ1)”, the log2 fold change was determined as 0.274.
For the target “SMAP1 (peptide sequence: KDQQLEPK, peptide start residue: 196) (UniProt Q8IYB5)”, the log2 fold change was found to be 0.22.
Turning to “ZC3H3 (peptide sequence: LDPAGSCSR, peptide start residue: 637) (UniProt Q8IXZ2)”, the log2 fold change was found to be 0.232.
Take “YANK3 (peptide sequence: DAAEPVEDEAER, peptide start residue: 459) (UniProt Q86UX6)”: the log2 fold change was 0.25.
Regarding “FERMT3 (peptide sequence: HPEELSLLRAPEKK, peptide start residue: 135) (UniProt Q86UX7)”, the log2 fold change is -0.198.
Regarding “DZIP3 (peptide sequence: LHYQCEDFKR, peptide start residue: 760) (UniProt Q86Y13)”, the log2 fold change was 0.306.
For “FAM178B (peptide sequence: DLATQTYIR, peptide start residue: 650) (UniProt Q8IXR5)”, the log2 fold change was -0.204.
Turning to “NAV2 (peptide sequence: QNLEETMSSLR, peptide start residue: 270) (UniProt Q8IVL1)”, the log2 fold change came out at 0.0417.
The result for “VRK3 (peptide sequence: SKGSGSRPPTPK, peptide start residue: 95) (UniProt Q8IV63)” reads 0.739.
Regarding “PPFIBP1 (peptide sequence: SSSLGNLKK, peptide start residue: 464) (UniProt Q86W92)”, the log2 fold change is -0.301.
Take “CCAR1 (peptide sequence: GYKQQLVEK, peptide start residue: 592) (UniProt Q8IX12)”: the log2 fold change turned out to be 0.839.
The result for “UniProt Q86VE0 (peptide sequence: RTGQEVQKR, peptide start residue: 71)” reads 0.0459.

Values taken from the supplement of paper PMC12819154, “High-throughput peptide-centric local stability assay extends protein–ligand identification to membrane proteins, tissues and bacteria” (Nature Structural & Molecular Biology, 2025).
